The results in this text go back to the supplement of paper PMC8728848.

Holding throughout (experiment): glycan array binding signal (z-score within array); higher = stronger binding
Conditions in all cases: glycan notation: IUPAC condensed, linker removed

The target in experiment [1] is Gal(b1-4)GlcNAc(b1-2)Man(a1-3)[Gal(b1-4)GlcNAc(b1-2)Man(a1-6)]Man(b1-4)GlcNAc(b1-4)[Fuc(a1-6)]GlcNAc. The gist of the method: (§1)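 From the Consortium for Functional Glycomics database, 3228 arrays were curated, keeping only those whose protein sequence was available. Binding is given as a within-array Z-score averaged across arrays sharing a protein sequence and across linkers. Negative Z-scores can be read as non-binding.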

For experiment [2], the target named is Gal(b1-4)GlcNAc(b1-2)Man(a1-3)[Gal(b1-4)GlcNAc(b1-2)Man(a1-6)][Gal(b1-4)GlcNAc(b1-4)]Man(b1-4)GlcNAc(b1-4)[Fuc(a1-6)]GlcNAc. The gist of the method:
as §1

Experiment [3] addresses Gal(b1-4)GlcNAc(b1-2)Man(a1-3)[Gal(b1-4)GlcNAc(b1-2)Man(a1-6)][GlcNAc(b1-4)]Man(b1-4)GlcNAc(b1-4)[Fuc(a1-6)]GlcNAc. The gist of the method: as §1
Experiment [4] has as its target Gal(b1-4)GlcNAc(b1-2)Man(a1-3)[GlcNAc(b1-2)Man(a1-6)]Man(b1-4)GlcNAc(b1-4)GlcNAc. The gist of the method:
as §1

Experiment [5] addresses Gal(b1-4)GlcNAc(b1-2)Man(a1-3)[GlcNAc(b1-4)][Gal(b1-4)GlcNAc(b1-2)Man(a1-6)]Man(b1-4)GlcNAc(b1-4)GlcNAc. The gist of the method: as §1
Experiment [6] concerns the target Gal(b1-4)GlcNAc(b1-2)Man(a1-3)[Man(a1-6)]Man(b1-4)GlcNAc(b1-4)GlcNAc. The gist of the method: as §1
In experiment [7] the target is Gal(b1-4)GlcNAc(b1-2)Man(a1-6)Man(b1-4)GlcNAc(b1-4)GlcNAc. The gist of the method: as §1
Experiment [8] deals with Gal(b1-4)GlcNAc(b1-2)Man(a1-6)[GlcNAc(b1-2)Man(a1-3)]Man(b1-4)GlcNAc(b1-4)GlcNAc. The gist of the method:
as §1

Experiment [9] concerns the target Gal(b1-4)GlcNAc(b1-2)Man(a1-6)[Man(a1-3)]Man(b1-4)GlcNAc(b1-4)GlcNAc. The gist of the method: as §1
Experiment [10] has as its target Gal(b1-4)GlcNAc(b1-2)[Gal(b1-4)GlcNAc(b1-4)]Man(a1-3)[Gal(b1-4)GlcNAc(b1-2)Man(a1-6)]Man(b1-4)GlcNAc(b1-4)GlcNAc. The gist of the method: as §1
Experiment [11] has as its target Gal(b1-4)GlcNAc(b1-2)[Gal(b1-4)GlcNAc(b1-4)]Man(a1-3)[Gal(b1-4)GlcNAc(b1-2)[Gal(b1-4)GlcNAc(b1-6)]Man(a1-6)]Man(b1-4)GlcNAc(b1-4)GlcNAc. The gist of the method: as §1
Experiment [12] has as its target Gal(b1-4)GlcNAc(b1-2)[Gal(b1-4)GlcNAc(b1-4)]Man(a1-3)[GlcNAc(b1-4)][Gal(b1-4)GlcNAc(b1-2)Man(a1-6)]Man(b1-4)GlcNAc(b1-4)GlcNAc. The gist of the method: as §1
Experiment [13] addresses Gal(b1-4)GlcNAc(b1-2)[Gal(b1-4)GlcNAc(b1-4)]Man(a1-3)[GlcNAc(b1-4)][Gal(b1-4)GlcNAc(b1-2)[Gal(b1-4)GlcNAc(b1-6)]Man(a1-6)]Man(b1-4)GlcNAc(b1-4)GlcNAc. The gist of the method: as §1
Experiment [14] has as its target Gal(b1-4)GlcNAc(b1-2)[Gal(b1-4)GlcNAc(b1-6)]Man(a1-6)[Gal(b1-4)GlcNAc(b1-2)Man(a1-3)]Man(b1-4)GlcNAc(b1-4)GlcNAc. The gist of the method: as §1
Experiment [15] addresses Gal(b1-4)GlcNAc(b1-2)[Gal(b1-4)GlcNAc(b1-6)]Man(a1-6)[Gal(b1-4)GlcNAc(b1-2)Man(a1-3)]Man(b1-4)GlcNAc(b1-4)[Fuc(a1-6)]GlcNAc. The gist of the method: as §1
The target of experiment [16] is Gal(b1-4)GlcNAc(b1-2)[Gal(b1-4)GlcNAc(b1-6)]Man(a1-6)[GlcNAc(b1-4)][Gal(b1-4)GlcNAc(b1-2)Man(a1-3)]Man(b1-4)GlcNAc(b1-4)GlcNAc. The gist of the method:
as §1

Experiment [17] has as its target Gal(b1-4)GlcNAc(b1-2)[Gal(b1-4)GlcNAc(b1-6)]Man(a1-6)[GlcNAc(b1-4)][Gal(b1-4)GlcNAc(b1-2)[Gal(b1-4)GlcNAc(b1-4)]Man(a1-3)]Man(b1-4)GlcNAc(b1-4)[Fuc(a1-6)]GlcNAc. The gist of the method:
as §1

Experiment [18] deals with Gal(b1-4)GlcNAc(b1-3)Gal(b1-3)GalNAc. The gist of the method: as §1
Experiment [19] has as its target Gal(b1-4)GlcNAc(b1-3)Gal(b1-3)GlcNAc. The gist of the method:
as §1

This is one part of the list.

B1: GS13971A-bth-447-22-447 (Bacteroides thetaiotaomicron) (protein)
chain: EDVDNERSKGMFSASQSGFSTIEVYDLGPLNKIDLSIAKAGLEDTGGTVTFSVEQSLLDSLNNADGTSYQLLPPECYTIENATYSVSPGGDRRVTGGSLVYDPHKIYNLCGFDELKYVLPLRVSSTGTPMNSDRTATLYGFIVKEAIVRLASTGGDFVVEGGTTTSPMNLDTEISFENEWDLTTSFATKGADYVDNYNSANSTYYIPLPSDFYTLPDVTIAKGKTTGGSAISLLGETLPPGNYLLPVSLGGLSGQGDASINIDKETVANYFVIKQGGPINRDHWTVTANTEEKTGEVSAAYPHNGQTISLIDGEINTFWHSKWQGGEVAPPYEIILDMGKENSVSQLGLIARQNALTSMNLEIYAGDDGETWNLIGKYFFDGSIKTEQMVPVKACDARWIRIYIPTLGSGSSVGHLAEIYVYGTDK
On to B1, for which the “glycan array binding signal (z-score)” value in [1] was -1.02; in experiment [2], -0.704; in experiment [3], -1.03; in [4] it was -1.02; in experiment [5], -0.231; in experiment [6], 0.249. In addition, the “glycan array binding signal (z-score)” value in [7] is -0.242; in experiment [8], -0.56; in experiment [9], -0.174; in experiment [10] it was 1.31; in experiment [11], -0.504; in experiment [12], -0.902. For the same molecule, the “glycan array binding signal (z-score)” value in experiment [13] was -0.957; in experiment [14], -0.704; in experiment [15] it was 0.053; in [16], -0.919; in experiment [17] it was 0.67; in experiment [18] it was -0.104. Also, in [19], the “glycan array binding signal (z-score)” value came out at 0.498.
